Test results reported in the supplement of paper PMC10689618.
The list shows a part of the results. Single values are uncertain, as repeats are few or missing.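 Primary human fetal astrocytes engulfed labelled rat cortical synaptosomes, measured as a red/green ratio corrected for calcein live-cell signal and scaled to the plate median. Toxicity meant calcein falling over 30%; decreased phagocytosis meant below 70% of median above 5 µM.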

What was measured:
Human fetal astrocytes [1] = assay: loss of total cells relative to no-compound high-control median (toxicity); higher = more toxic (fewer cells); details: 24 h
Human fetal astrocytes [2] = assay: synaptosome phagocytosis (pHrodo/calcein intensity ratio) relative to plate median of data wells; higher = more phagocytosis; details: 24 h

Structure (SMILES)	loss of total cells (Human fetal astrocytes [1]; 1.39 µM) [%]	loss of total cells (Human fetal astrocytes [1]; 2.78 µM) [%]	loss of total cells (Human fetal astrocytes [1]; 5.56 µM) [%]	loss of total cells (Human fetal astrocytes [1]; 11.11 µM) [%]	loss of total cells (Human fetal astrocytes [1]; 22.22 µM) [%]	synaptosome phagocytosis (Human fetal astrocytes [2]; 1.39 µM) [%]	synaptosome phagocytosis (Human fetal astrocytes [2]; 2.78 µM) [%]	synaptosome phagocytosis (Human fetal astrocytes [2]; 5.56 µM) [%]	synaptosome phagocytosis (Human fetal astrocytes [2]; 11.11 µM) [%]	synaptosome phagocytosis (Human fetal astrocytes [2]; 22.22 µM) [%]
CC(=O)OCC(=O)[C@@]1(O)[C@H](C)C[C@H]2[C@@H]3CCC4=CC(=O)C=C[C@]4(C)[C@@]3(F)[C@@H](O)C[C@@]21C	0.9	-41.7	-23	-25.1	-15.5	93.7	106	113	106	93.5
O=C(O[C@@H]1Cc2c(O)cc(O)cc2O[C@@H]1c1cc(O)c(=O)c2c(O)c(O)cc([C@H]3Oc4cc(O)cc(O)c4C[C@H]3OC(=O)c3cc(O)c(O)c(O)c3)c2c1)c1cc(O)c(O)c(O)c1	-7.6	15.9	-4.6	29	18.1	98.2	109	79.9	92.6	72.4
NC(=O)c1ncn([C@@H]2O[C@H](CO)[C@@H](O)[C@H]2O)c1N	-7.4	1.1	-1.5	11.5	23.7	130	113	84.3	114	113
CCCCC(=O)Oc1ccccc1C(=O)O	-14.8	-5.4	-8.1	9.5	13.3	109	115	89.7	98.2	121
Cc1ccc(C)c(OCCCC(C)(C)C(=O)O)c1	2.7	-24.1	-9.8	-9.5	-15.5	102	108	125	110	98.2
O=C(Nc1ccc(C(=O)O)c(O)c1)c1ccccc1	11.3	-31.7	1.2	37.7	-3.4	147	133	87.5	158	74.3
CC1=C(C(=O)O)N2C(=O)[C@@H](NC(=O)[C@H](N)C3=CCC=CC3)[C@H]2SC1	-22.4	-0.3	-0.3	-16.4	-13.6	86.3	101	92.7	114	105
COc1ccc2c(c1)OCC(Cc1ccc(O)c(OC)c1)C2=O (stereo not given)	-3.3	-3.3	30.5	25.8	35.9	146	84.7	155	54	156
CC(=O)Oc1cc(OC(C)=O)c2c(c1)O[C@H](c1ccc(OC(C)=O)c(OC(C)=O)c1)[C@H](OC(C)=O)C2	-6.9	0	9.2	12.3	-15.2	109	99.7	96.5	98.3	107
CCOc1ccc(NC(C)=O)cc1	13.9	-21.4	-16.7	11.2	28.9	102	109	98.8	104	104
CCOC(=O)c1ccc(O)cc1	-21.6	-10.1	-1.5	-9.4	9.6	106	101	104	110	110
CC(=O)Nc1c(I)cc(I)c(C(=O)O)c1I	-47.6	29.4	1.2	46.9	12.8	25.2	109	88.2	148	81
CC1(C)O[C@@H]2C[C@H]3[C@@H]4CCC5=CC(=O)CC[C@]5(C)[C@@]4(F)[C@@H](O)C[C@]3(C)[C@]2(C(=O)CCl)O1	-46.8	24.6	14.3	47.5	10.9	74.4	99.9	64.7	99.7	75
CC(C)(C)NC(=O)[C@H]1CC[C@H]2[C@@H]3CC[C@H]4NC(=O)C=C[C@]4(C)[C@H]3CC[C@]12C	-25.7	2.7	0.3	-0.8	21	105	106	103	95.7	82.2
OC[C@@H](O)[C@@H](O)C(O)[C@H](O)[C@@H](O)CO (stereo not given in full)	1.1	2	35.9	45.8	-1.1	108	103	144	128	124
NC(=O)c1ccccc1O	13.4	-30.8	-23.7	2.6	5.2	105	124	118	91.9	94.5
C=C(C)[C@H]1COc2cc3oc(=O)ccc3cc2O1	12.7	-6.6	-3.8	40	9.3	127	68.8	119	139	131
O=P(O)(O)C(O)(Cc1cccnc1)P(=O)(O)O	-6.2	-13.3	32.8	-4.5	2.6	139	91.5	159	122	98.2
CN1CCC[C@@H]1Cc1c[nH]c2ccc(CCS(=O)(=O)c3ccccc3)cc12	-2.5	-15.9	29	8.4	19.6	71.7	63	98.1	92.9	136
O=C(O)CCCCCCCC(O)C(O)CCCCCCO (stereo not given)	11.2	9	20.3	10.5	21.2	106	129	99.9	142	120

9 compounds from above, arranged by length of the SMILES, rising:
Structure (SMILES)	loss of total cells (Human fetal astrocytes [1]; 1.39 µM) [%]	loss of total cells (Human fetal astrocytes [1]; 2.78 µM) [%]	loss of total cells (Human fetal astrocytes [1]; 5.56 µM) [%]	loss of total cells (Human fetal astrocytes [1]; 11.11 µM) [%]	loss of total cells (Human fetal astrocytes [1]; 22.22 µM) [%]	synaptosome phagocytosis (Human fetal astrocytes [2]; 1.39 µM) [%]	synaptosome phagocytosis (Human fetal astrocytes [2]; 2.78 µM) [%]	synaptosome phagocytosis (Human fetal astrocytes [2]; 5.56 µM) [%]	synaptosome phagocytosis (Human fetal astrocytes [2]; 11.11 µM) [%]	synaptosome phagocytosis (Human fetal astrocytes [2]; 22.22 µM) [%]
NC(=O)c1ccccc1O	13.4	-30.8	-23.7	2.6	5.2	105	124	118	91.9	94.5
CC(=O)Nc1c(I)cc(I)c(C(=O)O)c1I	-47.6	29.4	1.2	46.9	12.8	25.2	109	88.2	148	81
O=C(Nc1ccc(C(=O)O)c(O)c1)c1ccccc1	11.3	-31.7	1.2	37.7	-3.4	147	133	87.5	158	74.3
C=C(C)[C@H]1COc2cc3oc(=O)ccc3cc2O1	12.7	-6.6	-3.8	40	9.3	127	68.8	119	139	131
OC[C@@H](O)[C@@H](O)C(O)[C@H](O)[C@@H](O)CO (stereo not given in full)	1.1	2	35.9	45.8	-1.1	108	103	144	128	124
NC(=O)c1ncn([C@@H]2O[C@H](CO)[C@@H](O)[C@H]2O)c1N	-7.4	1.1	-1.5	11.5	23.7	130	113	84.3	114	113
CN1CCC[C@@H]1Cc1c[nH]c2ccc(CCS(=O)(=O)c3ccccc3)cc12	-2.5	-15.9	29	8.4	19.6	71.7	63	98.1	92.9	136
CC(C)(C)NC(=O)[C@H]1CC[C@H]2[C@@H]3CC[C@H]4NC(=O)C=C[C@]4(C)[C@H]3CC[C@]12C	-25.7	2.7	0.3	-0.8	21	105	106	103	95.7	82.2
CC(=O)Oc1cc(OC(C)=O)c2c(c1)O[C@H](c1ccc(OC(C)=O)c(OC(C)=O)c1)[C@H](OC(C)=O)C2	-6.9	0	9.2	12.3	-15.2	109	99.7	96.5	98.3	107

Next part:

Structure (SMILES)	loss of total cells (Human fetal astrocytes [1]; 1.39 µM) [%]	loss of total cells (Human fetal astrocytes [1]; 2.78 µM) [%]	loss of total cells (Human fetal astrocytes [1]; 5.56 µM) [%]	loss of total cells (Human fetal astrocytes [1]; 11.11 µM) [%]	loss of total cells (Human fetal astrocytes [1]; 22.22 µM) [%]	synaptosome phagocytosis (Human fetal astrocytes [2]; 1.39 µM) [%]	synaptosome phagocytosis (Human fetal astrocytes [2]; 2.78 µM) [%]	synaptosome phagocytosis (Human fetal astrocytes [2]; 5.56 µM) [%]	synaptosome phagocytosis (Human fetal astrocytes [2]; 11.11 µM) [%]	synaptosome phagocytosis (Human fetal astrocytes [2]; 22.22 µM) [%]
O=c1[nH]cnc2c1ncn2[C@@H]1O[C@H](CO)[C@@H](O)[C@H]1O	23.5	-15.5	1.4	-18.8	12.9	112	96.2	105	104	145
O=c1cc(-c2ccccc2)oc2cccc(O)c12	-17.2	-14.1	-8.1	-3.4	10.4	102	106	60.7	124	106
COc1ccc2c(C)cc(=O)oc2c1	-24.6	4.7	-14.7	-0.7	-4.4	68	86.2	99.7	106	100
C[C@@H]1CC[C@@]2(OC1)O[C@H]1C[C@H]3[C@@H]4CC[C@@H]5C[C@@H](O)CC[C@]5(C)[C@H]4CC[C@]3(C)[C@H]1[C@@H]2C	25	-2.7	35.9	5.2	34.4	116	130	164	105	149
CC1(C)OC(=O)NC1=O	13.9	-4.4	-6.3	19.9	-28.3	120	160	123	126	103
COC(=O)Nc1nc2cc(Sc3ccccc3)ccc2[nH]1	-18.3	5.2	10.5	-1.6	4.5	117	119	96.7	105	110
Cc1cc(O)c(C)c(O)c1C(=O)O	0.4	-8	43.5	36.1	-20.4	90.4	122	126	138	128
Nc1nc(=S)c2ncn([C@@H]3O[C@H](CO)[C@@H](O)[C@H]3O)c2[nH]1	-21.3	-8.3	-8	11.3	-5.3	51.9	22.9	37.5	22.8	25.1
CCOC(=O)[C@H](CCc1ccccc1)N[C@@H](C)C(=O)N1Cc2ccccc2C[C@H]1C(=O)O	-25	-26.2	1.2	-1	-7.2	109	98	100	95.1	89.8
CC(=O)O[C@H]1CC[C@@]2(C)[C@H](CC[C@@H]3[C@@H]2CC[C@]2(C)[C@@H]4[C@H](C[C@@H]32)O[C@]2(CC[C@@H](C)CO2)[C@H]4C)C1	-5.4	4.7	41.2	46.5	-5.6	105	104	136	110	84.5
CC(C)(CO)C(O)C(=O)NCCCO (stereo not given)	-21	-18.3	-8.1	36.4	-5.9	101	111	106	123	103
CC(O)Cn1cnc2c1c(=O)n(C)c(=O)n2C (stereo not given)	18.4	15.5	8.7	10.5	15.2	151	120	131	98.5	103
O=c1cc(-c2ccccc2)oc2cc(O)c(O)c(O)c12	4.9	19.9	13.2	50	43.7	94.3	109	89.9	117	68.6
CC1(C)O[C@H]2CC(=O)OC[C@]23[C@H]2CC[C@@]4(C)[C@H](c5ccoc5)OC(=O)[C@H]5O[C@]54[C@]2(C)C(=O)C[C@@H]13	-16.4	-1.8	-1.5	12.2	19.3	74	119	104	97.3	148
COc1cc(Cc2cnc(N)nc2N)cc(OC)c1OC [Trimethoprim]	5	-15.9	-23	0.3	31.9	106	89.8	153	104	102
C[C@@H]1C/C=C/C=C/C=C/C=C/[C@H](O[C@@H]2O[C@H](C)[C@@H](O)[C@H](N)[C@@H]2O)C[C@@H]2O[C@](O)(C[C@@H](O)C[C@H]3O[C@@H]3/C=C/C(=O)O1)C[C@H](O)[C@H]2C(=O)O	-50	-30.2	0	-16.7	1.6	98.5	104	98.1	83.4	102
O=C(O)c1cccnc1	11.6	-15.5	5.1	8.6	-2.3	97.7	112	93.5	93.5	87.3
CC(C)=CC1C(CO)C1(C)C (stereo not given)	-8.2	6.1	1.5	14.9	20	117	128	134	114	123
COc1ccc2c(c1)OC[C@@H](Cc1ccc(OC)c(OC)c1)[C@H]2O	10.5	2.5	5.8	9.6	11.4	104	82.3	104	114	144
O=C1NS(=O)(=O)c2ccccc21	-16.6	-5.2	12.9	3.1	-12.5	74.4	82.5	108	95.1	120
